# Results: the supplement of paper PMC4604168 (melanoma cell lines)
# The other results are listed elsewhere or left out. Many values rest on one well or one pass, so single values are uncertain.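 Cells were imaged in 1,536-well plates, and nuclei stained with an antibody against cleaved PARP were counted against all DNA-stained nuclei to give the apoptosis fraction. Screening doses were chosen to leave most cells alive, and resting and induced cleaved-PARP levels differ strongly between cell lines.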
# Tested on: LB2518-MEL
# Test: cleaved PARP positive nuclei fraction relative to DMSO control; melanoma cells; higher = more apoptosis
# Conditions: library dose: low library concentration; 72 h
row,Compound,cleaved PARP positive nuclei fraction [%]
1,"COc1cc([C@@H]2c3cc4c(cc3[C@@H](O[C@@H]3O[C@@H]5CO[C@@H](C)O[C@H]5[C@H](O)[C@H]3O)[C@H]3COC(=O)[C@H]23)OCO4)cc(OC)c1O [etoposide] + O=S(=O)(c1ccccc1)N(CC(F)(F)F)c1ccc(C(O)(C(F)(F)F)C(F)(F)F)cc1 [T0901317] (first compound 0.02 µM, partner dose 1.4 µM)",33.6
2,"O=c1[nH]nc(Sc2ncc([N+](=O)[O-])s2)n1-c1ccc2c(c1)OCCO2 + c1cc(-c2cnn3cc(-c4ccc(OCCN5CCCCC5)cc4)cnc23)ccn1 [Dorsomorphin] (first compound 0.2 µM, partner dose 0.4 µM)",63.5
3,"Cc1cc(Nc2cc(N3CCN(C)CC3)nc(Sc3ccc(NC(=O)C4CC4)cc3)n2)n[nH]1 [Tozasertib] + Oc1cc(-c2nc(-c3ccccc3)[nH]c2-c2ccncc2)ccc1Cl [L779450] (first compound 0.006 µM, partner dose 0.2 µM)",48.2
4,"Cc1cc(Nc2cc(N3CCN(C)CC3)nc(Sc3ccc(NC(=O)C4CC4)cc3)n2)n[nH]1 [Tozasertib] + Cn1cc(/C=C2\C(=O)Nc3cccnc32)c2ccccc21 [GW441756] (first compound 0.006 µM, partner dose 0.4 µM)",73.8
5,"Cc1cn(-c2cc(NC(=O)c3ccc(C)c(Nc4nccc(-c5cccnc5)n4)c3)cc(C(F)(F)F)c2)cn1 [nilotinib] + O=C(O)C(=O)Nc1sc2c(c1C(=O)O)CCNC2 [TCS401] (first compound 0.2 µM, partner dose 1.66667 µM)",45.3
